{"source": "PubChem BioAssay AID588497", "about": "(NMMLSC, 2011)", "note": "The whole screen tested about 360,000 compounds, of which about 780 (0.22%) were called active. The shares of active, inactive and inconclusive entries below differ from those in the screen. Cut-off read from the data, not from the text of the source: active = inhibition above about 35% (passing the limit was not always enough); inconclusive = no clear call, values can overlap the other calls.", "data": [{"test_system": "Botulinum neurotoxin type F light chain protease (Clostridium botulinum)", "assay": "BoNT/F light chain protease inhibitors, primary screen, biochemical, flow cytometry, MLPCN library (AID 588497); note: plate controls were buffer without enzyme for full effect and enzyme alone for no effect", "details": "Multiplex microsphere protease cleavage assay, at 10 µM, active compounds read high", "values": [{"smiles": "CCOc1cc(/C=N/N2CCN(Cc3ccccc3)CC2)ccc1O", "inhibition": "inconclusive: 6.1%"}, {"smiles": "C[C@H]1[C@H](OC(=O)CCC(=O)NCc2ccc(C(=O)O)cc2)O[C@@H]2O[C@@]3(C)CC[C@H]4[C@H](C)CC[C@@H]1C24OO3", "inhibition": "inconclusive: -2.9%"}, {"smiles": "CC(C)(C)C(=O)N1CCN(c2ncccc2C(F)(F)F)CC1", "inhibition": "inconclusive: 50.8%"}, {"smiles": "O=C(Nc1ccccc1)NC1CCN(Cc2c(F)cccc2Cl)CC1", "inhibition": "inconclusive: -30.8%"}, {"smiles": "Nc1ccccc1C(=O)NC1CCCNC1=O", "note": "(stereo unspecified)", "inhibition": "inconclusive: -24.3%"}, {"smiles": "CC1=C(c2ccccc2)C(=S)NC(C)(C)C1", "inhibition": "inconclusive: -20.5%"}, {"smiles": "O=C(c1ccccc1)c1ccc(-c2ccc(O)cc2)cc1", "inhibition": "inconclusive: -9.5%"}, {"smiles": "O=C(NC(=S)NNC(=O)[C@H]1C[C@@H]1c1ccccc1)c1ccc(F)cc1", "inhibition": "inconclusive: 2.9%"}, {"smiles": "Cc1cc(Br)ccc1SCC(=O)N1CCN(S(=O)(=O)c2ccccc2)CC1", "inhibition": "inactive: 3.2%"}, {"smiles": "CCOC(=O)Cn1c2ccccc2n2nc(CCC(=O)O)c(=O)nc12", "inhibition": "inactive: 2.1%"}, {"smiles": "CN1CCN(S(=O)(=O)c2ccc(N3CCN(c4ccccc4O)CC3)c([N+](=O)[O-])c2)CC1", "inhibition": "inconclusive: -20.3%"}, {"smiles": "CN(C)CCCNS(=O)(=O)c1cc(Cl)c(Cl)cc1Cl", "inhibition": "inconclusive: -3.8%"}, {"smiles": "C=CCOc1cccc(C2C(C(=O)c3ccc(C)o3)=C(O)C(=O)N2c2nccs2)c1", "note": "(stereo unspecified)", "inhibition": "inactive: 22.7%"}, {"smiles": "COc1ccc(CN2CCC[C@]3(N[C@H](c4ccc(C)cc4)[C@@H]4C(=O)N(C)C(=O)[C@@H]43)C2=O)cc1", "inhibition": "inactive: 5.3%"}, {"smiles": "O=[N+]([O-])c1cc(S(=O)(=O)Nc2ccccc2)ccc1NCc1cccnc1", "inhibition": "inactive: -4.1%"}, {"smiles": "Cc1ccc(C(=O)NNC2=NC(C)(C)Cc3ccccc32)cc1", "inhibition": "inconclusive: 53.6%"}, {"smiles": "CCOC(=O)C1CCCN(C(=O)c2cnn3c(C(F)F)cc(-c4ccc(C)cc4)nc23)C1", "note": "(stereo unspecified)", "inhibition": "inconclusive: 7.7%"}, {"smiles": "O=C(Cc1ccccc1)OC(COCc1ccccc1)CN1CCOCC1", "note": "(stereo unspecified)", "inhibition": "inconclusive: -3.8%"}, {"smiles": "CC1(C)Cc2nc(-c3ccccc3)nc(SCC(=O)N3CCOCC3)c2CO1", "inhibition": "inactive: -3.5%"}, {"smiles": "CCCC[n+]1c2ccccc2cc2ccccc21", "inhibition": "inconclusive: -65.4%"}, {"smiles": "COc1ccccc1-c1cnn2c(N3CCOCC3)cc(C)nc12", "inhibition": "active: 38.5%"}, {"smiles": "O=C(CSC(=S)N1CCCC1)N/N=C/c1c(O)[nH]c(=S)[nH]c1=O", "inhibition": "inactive: -6%"}, {"smiles": "COc1c(Br)cc([N+](=O)[O-])c(OC)c1C(=O)NC(=O)Nc1nc(C)cc(C)n1", "inhibition": "inconclusive: -28.3%"}, {"smiles": "CCc1ccc(C(=O)NNC(=O)CN2C(=O)NC(CC)(c3ccccc3)C2=O)cc1", "note": "(stereo unspecified)", "inhibition": "inconclusive: 99.9%"}, {"smiles": "COc1ccc2c(c1)c(C(=O)CN1CCCCC1)c(C)n2C", "inhibition": "inconclusive: 35.7%"}, {"smiles": "Cc1ccc(-c2n[nH]c(=O)c3ccccc23)cc1S(=O)(=O)N(C)C", "inhibition": "inconclusive: -35.6%"}, {"smiles": "O=C(c1ccccc1F)c1cn(Cc2ccccc2)c2ccccc12", "inhibition": "inactive: 0%"}, {"smiles": "CN(C)NC(=S)Nc1ccc(S(=O)(=O)N2CCCCC2)cc1", "inhibition": "inconclusive: -14.3%"}, {"smiles": "Cc1ccc(CNC(=O)Nc2ccc(F)cc2)n1C", "inhibition": "inactive: -31.4%"}, {"smiles": "CCOC(=O)N1CCN(CCc2ccccc2)CC1", "inhibition": "inconclusive: -25.6%"}, {"smiles": "COc1ccc(N2CCN(C(=O)COC(=O)c3cccc(S(=O)(=O)Nc4cccc(C)c4)c3)CC2)cc1", "inhibition": "inconclusive: 7.8%"}, {"smiles": "COc1ccc(C(C)(C)C)cc1S(=O)(=O)NCC1CCCO1", "note": "(stereo unspecified)", "inhibition": "inconclusive: 12.7%"}, {"smiles": "Cn1c(=O)c2c(nc(Oc3cccc(Br)c3)n2C)n(C)c1=O", "inhibition": "inconclusive: -16%"}, {"smiles": "O=C(O)c1cc(NN=Nc2ccc(Br)cc2)cc([N+](=O)[O-])c1", "inhibition": "inactive: 2.9%"}, {"smiles": "C=CC[n+]1ccc(/C=C2\\C=Cc3cc(C)ccc3N2CC)c2ccccc21", "inhibition": "inactive: -18.8%"}, {"smiles": "CC(NC(=S)NC(=O)c1ccccc1Br)c1ccccc1", "note": "(stereo unspecified)", "inhibition": "inconclusive: -6.8%"}, {"smiles": "CCOC(=O)Cc1nc(-c2ccc(Cl)cc2)n[nH]1", "inhibition": "inactive: 0.2%"}, {"smiles": "COc1ccc(-[n+]2c(-c3ccccc3)cc(-c3ccc(C)cc3)cc2-c2ccccc2)cc1", "inhibition": "inactive: 6.8%"}, {"smiles": "COc1ccc(C(=O)Nc2ccccc2C(=O)Nc2ccccc2C(=O)O)cc1", "inhibition": "inconclusive: -2.6%"}, {"smiles": "CCOc1cc(C(=O)OCC(=O)Nc2c(C)cccc2C)ccc1OCC(=O)N1CCOCC1", "inhibition": "inactive: 0%"}, {"smiles": "COc1ccc(S(=O)(=O)N2CN3CCN(C3)C2)cc1", "inhibition": "inconclusive: 7.3%"}, {"smiles": "Cc1ccc(C(=O)NCC(=O)N(C)CC(=O)Nc2c(Cl)cccc2Cl)s1", "inhibition": "inconclusive: 7.7%"}, {"smiles": "Cc1ccc(C)c(NC(=O)CN(C)C(C)C(=O)N2CC(C)CC(C)C2)c1", "note": "(stereo unspecified)", "inhibition": "inconclusive: -0.6%"}, {"smiles": "COc1ccc(CNCCC(c2ccc(OC(C)C)cc2)c2ccccc2OC)cc1OC", "note": "(stereo unspecified)", "inhibition": "inconclusive: -66.2%"}, {"smiles": "COc1ccc2[nH]c(C(=O)NCc3ccccc3)c(C)c2c1", "inhibition": "inactive: 4.7%"}, {"smiles": "COC(=O)C1=CN(Cc2ccc(C)cc2)C=C(C(=O)OC)C1c1cc(OC)c(OC)c(OC)c1", "inhibition": "inactive: 3.4%"}, {"smiles": "Cc1cccc(CN2CCN(C(C)C(=O)NC(C)c3ccccc3)CC2)c1", "note": "(stereo unspecified)", "inhibition": "inactive: 6%"}, {"smiles": "COc1ccc(C2C(C#N)=C(N)Oc3cc(O)ccc32)cc1Cl", "note": "(stereo unspecified)", "inhibition": "active: 35.3%"}, {"smiles": "CCCn1nc(NC(=O)c2cccs2)c2cc3cc(C)ccc3nc21", "inhibition": "inconclusive: 64.2%"}, {"smiles": "O=C(N/N=C/C=C\\c1cccc([N+](=O)[O-])c1)c1cccnc1", "inhibition": "inconclusive: -11%"}, {"smiles": "O=C(Cc1ccccc1)NCC(=O)N1CCN(c2ccc(F)cc2)CC1", "inhibition": "inactive: -2.9%"}, {"smiles": "O=C(O)c1ccccc1Nc1cc(Cl)c2nonc2c1[N+](=O)[O-]", "inhibition": "inconclusive: -52.4%"}, {"smiles": "CCCc1c(C(=O)Nc2cc(C(C)(C)C)on2)cnn1-c1ccccc1", "inhibition": "inconclusive: -39.2%"}, {"smiles": "Cc1cccc(-c2noc(CN(C)C(=O)COc3ccccc3)n2)c1", "inhibition": "inconclusive: 4.1%"}, {"smiles": "Cc1ccc(C(=O)NCc2ccco2)cc1S(=O)(=O)Nc1cccc(Cl)c1", "inhibition": "inactive: 2.1%"}, {"smiles": "Oc1ccccc1-c1nnc(-c2ccc(C(F)(F)F)cc2)o1", "inhibition": "active: 35.2%"}]}]}
